Reference: PubChem BioAssay AID1259270 (Sanger Institute, 2017)
The deposit covers 160 reagents; shown is a part drawn at random. 76 of all reagents (48%) were called active. 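Four separate siRNAs per gene; calls are per siRNA in one cell line, looser than gene-level validation across several lines.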 Entries without a mark were called inactive. Reagents against one gene are numbered here. Not all columns of the deposit are shown. Not given: the amount of reagent, the time to read-out.

Purpose: 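Kinase genes whose loss is synthetically lethal with BYL719, cetuximab or trametinib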 (follow-up of hits)
System: human SNU-C5 colorectal cancer cells
Reagents: single siRNA against human genes
Treatment: anchor drugs added after knock-down: BYL719 1 µM, cetuximab 5 µg/ml or trametinib 10 nM, or DMSO vehicle
Measurement: 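Replicate survival relative to non-targeting pool 2, then averaged; anchor drug added after silencing; synergy score weighs combination against each single treatment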
Scale: synergy score with BYL719 and synergy score with cetuximab and synergy score with trametinib: higher = stronger synergy (extra killing) with the drug
Rule for the call: 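a score above 0.10 for BYL719, cetuximab or trametinib gives a synergy call; no score above 0.10 means no synergy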
Meaning of the calls: active = synergy with at least one drug; inactive = no synergy with any drug

Against MAP3K8 (GeneID 1326) #1, the values are synergy score with BYL719 = -0.215; synergy score with cetuximab -0.0501; synergy score with trametinib -0.0618.
For MAP3K8 (GeneID 1326) #2, the values are synergy score with BYL719 = -0.0111; synergy score with cetuximab -0.17; synergy score with trametinib -0.237.
Silencing of MAP3K8 (GeneID 1326) #3 came out at: synergy score with BYL719 = -0.161; synergy score with cetuximab -0.174; synergy score with trametinib -0.305.
For MAP3K8 (GeneID 1326) #4, the entry reads synergy score with BYL719 = -0.11 (active); synergy score with cetuximab -0.117; synergy score with trametinib 0.155.
With knock-down of SYK (GeneID 6850) #1, the screen gave synergy score with BYL719 = 0.0843 (active); synergy score with cetuximab 0.0437; synergy score with trametinib 0.365.
Against SYK (GeneID 6850) #2 the deposit lists synergy score with BYL719 = -0.0536; synergy score with cetuximab 0.0996; synergy score with trametinib -0.031.
After knock-down of SYK (GeneID 6850) #3 the results were synergy score with BYL719 = 0.0195; synergy score with cetuximab -0.0242; synergy score with trametinib -0.102.
SYK (GeneID 6850) #4 showed synergy score with BYL719 = -0.156 (active); synergy score with cetuximab 0.0804; synergy score with trametinib 0.284.
Silencing of CHD4 (GeneID 1108) #1 gave: synergy score with BYL719 = -0.0686; synergy score with cetuximab -0.000906; synergy score with trametinib 0.0299.
After knock-down of CHD4 (GeneID 1108) #2, the record shows synergy score with BYL719 = -0.226 (active); synergy score with cetuximab 0.0708; synergy score with trametinib 0.285.
CHD4 (GeneID 1108) #3 showed synergy score with BYL719 = -0.105; synergy score with cetuximab -0.0644; synergy score with trametinib -0.211.
Against CHD4 (GeneID 1108) #4 the deposit lists synergy score with BYL719 = -0.114; synergy score with cetuximab 0.0351; synergy score with trametinib -0.0553.

Reagents above marked active, once more:
MAP3K8 (GeneID 1326) #4 — synergy score with BYL719: -0.11 (active); synergy score with cetuximab: -0.117; synergy score with trametinib: 0.155
SYK (GeneID 6850) #1 — synergy score with BYL719: 0.0843 (active); synergy score with cetuximab: 0.0437; synergy score with trametinib: 0.365
SYK (GeneID 6850) #4 — synergy score with BYL719: -0.156 (active); synergy score with cetuximab: 0.0804; synergy score with trametinib: 0.284
CHD4 (GeneID 1108) #2 — synergy score with BYL719: -0.226 (active); synergy score with cetuximab: 0.0708; synergy score with trametinib: 0.285
